From PMC8200423
These are yes or no findings as the source states them, for the method shown. Binding seen in cells or lysates may run through a third protein. Some results given as binding are weak or reduced against the parent protein; the word gives no strength.

The chains behind the UniProt entries cited, without tags or fusion partners. Residues count along the entry.
UniProt P02708, residues 21-457: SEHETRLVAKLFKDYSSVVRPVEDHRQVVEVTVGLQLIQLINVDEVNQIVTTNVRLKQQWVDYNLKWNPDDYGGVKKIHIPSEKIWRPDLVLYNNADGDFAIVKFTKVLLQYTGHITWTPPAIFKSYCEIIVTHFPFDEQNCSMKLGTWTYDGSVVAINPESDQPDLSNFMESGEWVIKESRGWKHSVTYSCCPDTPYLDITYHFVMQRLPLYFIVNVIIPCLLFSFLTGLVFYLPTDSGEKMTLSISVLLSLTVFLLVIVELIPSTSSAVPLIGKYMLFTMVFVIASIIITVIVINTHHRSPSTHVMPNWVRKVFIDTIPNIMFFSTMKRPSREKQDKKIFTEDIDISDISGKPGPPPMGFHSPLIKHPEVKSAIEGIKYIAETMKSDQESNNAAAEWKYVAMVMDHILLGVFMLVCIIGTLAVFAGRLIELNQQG
UniProt Q58WW2: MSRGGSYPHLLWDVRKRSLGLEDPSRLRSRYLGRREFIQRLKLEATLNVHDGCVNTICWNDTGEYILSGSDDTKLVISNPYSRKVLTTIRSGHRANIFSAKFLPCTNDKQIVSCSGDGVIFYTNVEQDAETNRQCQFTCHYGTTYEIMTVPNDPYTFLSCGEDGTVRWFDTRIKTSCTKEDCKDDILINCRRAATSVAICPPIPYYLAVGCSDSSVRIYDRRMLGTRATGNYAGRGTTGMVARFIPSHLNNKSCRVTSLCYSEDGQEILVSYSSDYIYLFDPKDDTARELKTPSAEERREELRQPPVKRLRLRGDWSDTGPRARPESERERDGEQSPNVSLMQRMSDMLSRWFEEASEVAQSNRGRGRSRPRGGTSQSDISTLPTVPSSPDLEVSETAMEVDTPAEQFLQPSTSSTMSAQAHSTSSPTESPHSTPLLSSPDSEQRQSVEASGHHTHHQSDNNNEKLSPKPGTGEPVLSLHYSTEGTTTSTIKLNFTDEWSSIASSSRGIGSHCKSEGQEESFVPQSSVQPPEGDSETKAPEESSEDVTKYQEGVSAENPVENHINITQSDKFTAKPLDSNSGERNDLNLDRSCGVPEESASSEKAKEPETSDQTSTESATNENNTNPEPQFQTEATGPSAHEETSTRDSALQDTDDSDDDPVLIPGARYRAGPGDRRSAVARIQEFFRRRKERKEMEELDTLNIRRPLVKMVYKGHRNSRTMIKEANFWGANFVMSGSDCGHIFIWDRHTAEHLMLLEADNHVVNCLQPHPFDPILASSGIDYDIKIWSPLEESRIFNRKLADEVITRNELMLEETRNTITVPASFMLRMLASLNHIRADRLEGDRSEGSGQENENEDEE
UniProt P04756, residues 21-457: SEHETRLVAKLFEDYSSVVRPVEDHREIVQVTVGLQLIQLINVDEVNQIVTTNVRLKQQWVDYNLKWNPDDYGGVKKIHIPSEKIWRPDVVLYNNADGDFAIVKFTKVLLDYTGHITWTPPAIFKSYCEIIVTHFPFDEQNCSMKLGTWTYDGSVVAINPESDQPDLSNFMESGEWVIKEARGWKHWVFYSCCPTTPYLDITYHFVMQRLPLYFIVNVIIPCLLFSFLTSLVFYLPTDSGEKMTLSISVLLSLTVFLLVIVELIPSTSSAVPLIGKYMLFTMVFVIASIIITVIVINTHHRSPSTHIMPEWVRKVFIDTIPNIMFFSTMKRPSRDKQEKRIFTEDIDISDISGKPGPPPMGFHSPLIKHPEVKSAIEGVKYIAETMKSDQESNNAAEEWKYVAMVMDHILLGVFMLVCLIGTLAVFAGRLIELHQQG
UniProt Q9DC22: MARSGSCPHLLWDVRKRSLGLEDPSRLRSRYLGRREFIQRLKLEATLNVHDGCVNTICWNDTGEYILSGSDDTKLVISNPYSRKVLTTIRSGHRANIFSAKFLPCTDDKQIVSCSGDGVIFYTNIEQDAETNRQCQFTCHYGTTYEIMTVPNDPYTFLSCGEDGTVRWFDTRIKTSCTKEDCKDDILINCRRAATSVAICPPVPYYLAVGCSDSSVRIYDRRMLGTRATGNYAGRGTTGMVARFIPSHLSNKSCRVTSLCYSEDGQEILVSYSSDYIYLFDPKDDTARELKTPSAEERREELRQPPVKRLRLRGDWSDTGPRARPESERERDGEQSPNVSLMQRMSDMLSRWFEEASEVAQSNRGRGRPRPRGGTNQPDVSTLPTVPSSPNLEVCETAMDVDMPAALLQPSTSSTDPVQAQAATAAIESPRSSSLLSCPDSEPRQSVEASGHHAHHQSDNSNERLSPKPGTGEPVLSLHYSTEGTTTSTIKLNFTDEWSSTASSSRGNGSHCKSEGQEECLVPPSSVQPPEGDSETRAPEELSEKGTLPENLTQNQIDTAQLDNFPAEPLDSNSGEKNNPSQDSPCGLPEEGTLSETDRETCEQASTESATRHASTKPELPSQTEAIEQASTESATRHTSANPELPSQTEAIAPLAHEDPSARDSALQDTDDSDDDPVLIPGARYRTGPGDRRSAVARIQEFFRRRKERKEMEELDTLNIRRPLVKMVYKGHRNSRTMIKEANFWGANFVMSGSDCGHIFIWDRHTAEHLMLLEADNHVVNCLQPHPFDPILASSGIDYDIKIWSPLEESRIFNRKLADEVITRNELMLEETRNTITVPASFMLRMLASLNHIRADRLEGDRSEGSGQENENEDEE

Tests used:
[1] = biological target: Flag‐AChRα (UniProt P02708); assay: co-IP; HEK293T cells co-transfected with EGFP-NRIP and Flag-AChRα; immunoprecipitation with anti-EGFP or anti-Flag, Western blot
[2] = biological target: EGFP‐NRIP (UniProt Q58WW2); assay: as above
[3] = biological target: α subunit of AChR (AChRα), endogenous (mouse (endogenous in C2C12)) (UniProt P04756); assay: co-IP; endogenous proteins in lysates of C2C12 cells differentiated for 5 days; immunoprecipitation with anti-NRIP, anti-AChRα or normal rabbit IgG, Western blot
[4] = biological target: nuclear receptor interaction protein (NRIP), endogenous (mouse (endogenous in gastrocnemius muscle and C2C12)) (UniProt Q9DC22); assay: as above

## EGFP‐NRIP (from UniProt Q58WW2 1-860)
[1]
  binding: binds

## Flag‐AChRα (from UniProt P02708 21-457)
[2]
  binding: binds

## nuclear receptor interaction protein (NRIP), endogenous (from UniProt Q9DC22 1-876)
[3]
  binding: binds

## α subunit of AChR (AChRα), endogenous (from UniProt P04756 21-457)
[4]
  binding: binds
